Binding data for two molecules are collected here from paper doi:10.1101/2020.07.06.189761.

This assay deals with T1, Esa1 subunit of the S. cerevisiae Piccolo NuA4 complex, 6X-His tagged (S. cerevisiae) (UniProt Q08649).
T1 sequence: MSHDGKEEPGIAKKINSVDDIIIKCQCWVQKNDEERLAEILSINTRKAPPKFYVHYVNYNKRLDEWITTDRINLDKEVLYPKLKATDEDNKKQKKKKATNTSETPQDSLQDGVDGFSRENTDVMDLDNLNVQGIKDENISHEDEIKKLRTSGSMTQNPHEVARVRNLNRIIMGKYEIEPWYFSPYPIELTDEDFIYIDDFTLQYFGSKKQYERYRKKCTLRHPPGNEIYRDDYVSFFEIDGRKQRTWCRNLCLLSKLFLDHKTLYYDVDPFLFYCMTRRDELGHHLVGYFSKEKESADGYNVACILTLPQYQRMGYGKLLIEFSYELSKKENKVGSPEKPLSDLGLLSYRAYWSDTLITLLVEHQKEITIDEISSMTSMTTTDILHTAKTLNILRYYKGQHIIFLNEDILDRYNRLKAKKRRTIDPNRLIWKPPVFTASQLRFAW
Briefly: pull-down.

No constants are given. Whether binding was seen depends on the method and setting. Some results given as binding are weak or reduced against the parent protein; the word gives no strength. Tags and fused reporters may be left off the sequences shown.

B1: Epl1 subunit of the S. cerevisiae Piccolo NuA4 complex (protein, UniProt P43572 1-832)
chain: MPTPSNAIEINDGSHKSGRSTRRSGSRSAHDDGLDSFSKGDSGAGASAGSSNSRFRHRKISVKQHLKIYLPNDLKHLDKDELQQREVVEIETGVEKNEEKEVHLHRILQMGSGHTKHKDYIPTPDASMTWNEYDKFYTGSFQETTSYIKFSATVEDCCGTNYNMDERDETFLNEQVNKGSSDILTEDEFEILCSSFEHAIHERQPFLSMDPESILSFEELKPTLIKSDMADFNLRNQLNHEINSHKTHFITQFDPVSQMNTRPLIQLIEKFGSKIYDYWRERKIEVNGYEIFPQLKFERPGEKEEIDPYVCFRRREVRHPRKTRRIDILNSQRLRALHQELKNAKDLALLVAKRENVSLNWINDELKIFDQRVKIKNLKRSLNISGEDDDLINHKRKRPTIVTVEQREAELRKAELKRAAAAAAAAKAKNNKRNNQLEDKSSRLTKQQQQQLLQQQQQQQQNALKTENGKQLANASSSSTSQPITSHVYVKLPSSKIPDIVLEDVDALLNSKEKNARKFVQEKMEKRKIEDADVFFNLTDDPFNPVFDMSLPKNFSTSNVPFASIASSKFQIDRSFYSSHLPEYLKGISDDIRIYDSNGRSRNKDNYNLDTKRIKKTELYDPFQENLEIHSREYPIKFRKRVGRSNIKYVDRMPNFTTSSTKSACSLMDFVDFDSIEKEQYSREGSNDTDSINVYDSKYDEFVRLYDKWKYDSPQNEYGIKFSDEPARLNQISNDTQVIRFGTMLGTKSYEQLREATIKYRRDYITRLKQKHIQHLQQQQQQQQQQQQQAQQQKQKSQNNNSNSSNSLKKLNDSLINSEAKQNSSITQKNSS
Take B1: the binding result was “binds”.

B2: Yng2 subunit of the S. cerevisiae Piccolo NuA4 complex (protein, UniProt P38806 1-282)
chain: MDPSLVLEQTIQDVSNLPSEFRYLLEEIGSNDLKLIEEKKKYEQKESQIHKFIRQQGSIPKHPQEDGLDKEIKESLLKCQSLQREKCVLANTALFLIARHLNKLEKNIALLEEDGVLAPVEEDGDMDSAAEASRESSVVSNSSVKKRRAASSSGSVPPTLKKKKTSRTSKLQNEIDVSSREKSVTPVSPSIEKKIARTKEFKNSRNGKGQNGSPENEEEDKTLYCFCQRVSFGEMVACDGPNCKYEWFHYDCVNLKEPPKGTWYCPECKIEMEKNKLKRKRN
Regarding B2, the binding result is “binds”.
